Here are results for two substances from US20160304584A1, “MAFB MUTANTS AND USES THEREOF” (INSERM (INSTITUT NATIONAL DE LA SANTÉ ET DE LA …, published 2016).

Protein sequences, listed by entry. Tags and fused reporters are not part of them. Lines headed by an entry give the natural chain unless they say otherwise; changes in a name come on top. Residues count along the entry.
UniProt P54841: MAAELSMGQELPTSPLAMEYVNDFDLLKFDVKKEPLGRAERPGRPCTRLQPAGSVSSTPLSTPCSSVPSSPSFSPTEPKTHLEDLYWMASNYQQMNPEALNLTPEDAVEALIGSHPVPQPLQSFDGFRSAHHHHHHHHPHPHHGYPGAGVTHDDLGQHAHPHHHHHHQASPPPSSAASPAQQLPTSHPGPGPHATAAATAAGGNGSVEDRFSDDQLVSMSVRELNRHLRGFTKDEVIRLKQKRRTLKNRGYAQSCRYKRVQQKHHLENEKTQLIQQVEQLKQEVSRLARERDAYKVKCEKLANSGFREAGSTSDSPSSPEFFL
UniProt P01101, residues 138-200: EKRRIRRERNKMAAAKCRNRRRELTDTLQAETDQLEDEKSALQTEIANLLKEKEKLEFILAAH

The target of assay [1] is MafB (E269R) mutant, recombinant protein (Mus musculus) (UniProt P54841). Put plainly: EMSA on T-MARE(gamma). Background: A gel shift assay detects complexes by their altered migration in electrophoresis.
For assay [2], the target named is c-Fos fragment from Mus musculus (residues 138-200), encompassing the BR and Zip segment (Mus musculus) (UniProt P01101). Put plainly: EMSA on T-MARE(beta).
Assay [3] concerns the target MafB (E269R) mutant, recombinant protein (Mus musculus) (UniProt P54841). The assay is described as follows: EMSA, equimolar MafB (E269R) and c-Fos.
The target in assay [4] is c-Fos fragment from Mus musculus (residues 138-200), encompassing the BR and Zip segment (Mus musculus) (UniProt P01101). Put plainly: EMSA with c-Fos titration.
The target of assay [5] is MafB (V277N) mutant, recombinant protein (Mus musculus) (UniProt P54841). The assay is described as follows: EMSA on a T-MARE probe.

Results are given in words; binding and its absence hold for the method and conditions named. Some results given as binding are weak or reduced against the parent protein; the word gives no strength.

With “MafB (E269R) mutant, recombinant protein (from UniProt P54841 211-305)”, the binding entry in assay [1], in assay [2], in assay [3] and in assay [4] was “binds” each time.
Take “MafB (V277N) mutant, recombinant protein (from UniProt P54841 211-305)”: the binding entry in assay [5] is recorded as “binds”.
